This is one part of the list.
Tests used:
Experiment in all cases: glycan array binding signal (z-score within array); higher = stronger binding
Conditions in all cases: glycan notation: IUPAC condensed, linker removed
[1] = target: Gal(b1-4)GlcNAc(b1-2)[Gal(b1-4)GlcNAc(b1-6)]Man(a1-6)[Gal(b1-4)GlcNAc(b1-2)Man(a1-3)]Man(b1-4)GlcNAc(b1-4)[Fuc(a1-6)]GlcNAc
Summary of the method: (§1)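 From the Consortium for Functional Glycomics database, 3228 arrays were curated, keeping only those whose protein sequence was available. Binding is given as a within-array Z-score averaged across arrays sharing a protein sequence and across linkers. Negative Z-scores can be read as non-binding.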

[2] = target: Gal(b1-4)GlcNAc(b1-2)[Gal(b1-4)GlcNAc(b1-6)]Man(a1-6)[GlcNAc(b1-4)][Gal(b1-4)GlcNAc(b1-2)Man(a1-3)]Man(b1-4)GlcNAc(b1-4)GlcNAc
Summary of the method: as §1

[3] = target: Gal(b1-4)GlcNAc(b1-2)[Gal(b1-4)GlcNAc(b1-6)]Man(a1-6)[GlcNAc(b1-4)][Gal(b1-4)GlcNAc(b1-2)[Gal(b1-4)GlcNAc(b1-4)]Man(a1-3)]Man(b1-4)GlcNAc(b1-4)[Fuc(a1-6)]GlcNAc
Summary of the method: as §1

[4] = target: Gal(b1-4)GlcNAc(b1-3)Gal(b1-3)GalNAc
Summary of the method: as §1

[5] = target: Gal(b1-4)GlcNAc(b1-3)Gal(b1-3)GlcNAc
Summary of the method: as §1

[6] = target: Gal(b1-4)GlcNAc(b1-3)Gal(b1-4)Glc
Summary of the method: as §1

[7] = target: Gal(b1-4)GlcNAc(b1-3)Gal(b1-4)GlcNAc
Summary of the method: as §1

[8] = target: Gal(b1-4)GlcNAc(b1-3)Gal(b1-4)GlcNAc(b1-2)Man(a1-3)[Gal(b1-4)GlcNAc(b1-3)Gal(b1-4)GlcNAc(b1-2)Man(a1-6)]Man(b1-4)GlcNAc(b1-4)GlcNAc
Summary of the method: as §1

[9] = target: Gal(b1-4)GlcNAc(b1-3)Gal(b1-4)GlcNAc(b1-2)Man(a1-3)[Gal(b1-4)GlcNAc(b1-3)Gal(b1-4)GlcNAc(b1-2)Man(a1-6)]Man(b1-4)GlcNAc(b1-4)[Fuc(a1-6)]GlcNAc
Summary of the method: as §1

[10] = target: Gal(b1-4)GlcNAc(b1-3)Gal(b1-4)GlcNAc(b1-2)[Gal(b1-4)GlcNAc(b1-3)Gal(b1-4)GlcNAc(b1-6)]Man(a1-6)[Gal(b1-4)GlcNAc(b1-3)Gal(b1-4)GlcNAc(b1-2)Man(a1-3)]Man(b1-4)GlcNAc(b1-4)GlcNAc
Summary of the method: as §1

[11] = target: Gal(b1-4)GlcNAc(b1-3)Gal(b1-4)GlcNAc(b1-2)[Gal(b1-4)GlcNAc(b1-3)Gal(b1-4)GlcNAc(b1-6)]Man(a1-6)[Gal(b1-4)GlcNAc(b1-3)Gal(b1-4)GlcNAc(b1-2)Man(a1-3)]Man(b1-4)GlcNAc(b1-4)[Fuc(a1-6)]GlcNAc
Summary of the method: as §1

[12] = target: Gal(b1-4)GlcNAc(b1-3)Gal(b1-4)GlcNAc(b1-3)Gal(b1-4)GlcNAc
Summary of the method: as §1

[13] = target: Gal(b1-4)GlcNAc(b1-3)Gal(b1-4)GlcNAc(b1-3)Gal(b1-4)GlcNAc(b1-2)Man(a1-3)[Gal(b1-4)GlcNAc(b1-3)Gal(b1-4)GlcNAc(b1-3)Gal(b1-4)GlcNAc(b1-2)Man(a1-6)]Man(b1-4)GlcNAc(b1-4)GlcNAc
Summary of the method: as §1

[14] = target: Gal(b1-4)GlcNAc(b1-3)Gal(b1-4)GlcNAc(b1-3)Gal(b1-4)GlcNAc(b1-2)Man(a1-3)[Gal(b1-4)GlcNAc(b1-3)Gal(b1-4)GlcNAc(b1-3)Gal(b1-4)GlcNAc(b1-2)Man(a1-6)]Man(b1-4)GlcNAc(b1-4)[Fuc(a1-6)]GlcNAc
Summary of the method: as §1

[15] = target: Gal(b1-4)GlcNAc(b1-3)Gal(b1-4)GlcNAc(b1-3)Gal(b1-4)GlcNAc(b1-2)[Gal(b1-4)GlcNAc(b1-3)Gal(b1-4)GlcNAc(b1-3)Gal(b1-4)GlcNAc(b1-6)]Man(a1-6)[Gal(b1-4)GlcNAc(b1-3)Gal(b1-4)GlcNAc(b1-3)Gal(b1-4)GlcNAc(b1-2)Man(a1-3)]Man(b1-4)GlcNAc(b1-4)[Fuc(a1-6)]GlcNAc
Summary of the method: as §1

[16] = target: Gal(b1-4)GlcNAc(b1-3)Gal(b1-4)GlcNAc(b1-3)Gal(b1-4)GlcNAc(b1-3)Gal(b1-4)GlcNAc(b1-2)Man(a1-3)[Gal(b1-4)GlcNAc(b1-3)Gal(b1-4)GlcNAc(b1-3)Gal(b1-4)GlcNAc(b1-3)Gal(b1-4)GlcNAc(b1-2)Man(a1-6)]Man(b1-4)GlcNAc(b1-4)GlcNAc
Summary of the method: as §1

[17] = target: Gal(b1-4)GlcNAc(b1-3)Gal(b1-4)GlcNAc(b1-3)Gal(b1-4)GlcNAc(b1-3)Gal(b1-4)GlcNAc(b1-2)Man(a1-3)[Gal(b1-4)GlcNAc(b1-3)Gal(b1-4)GlcNAc(b1-3)Gal(b1-4)GlcNAc(b1-3)Gal(b1-4)GlcNAc(b1-2)Man(a1-6)]Man(b1-4)GlcNAc(b1-4)[Fuc(a1-6)]GlcNAc
Summary of the method: as §1

[18] = target: Gal(b1-4)GlcNAc(b1-3)Gal(b1-4)GlcNAc(b1-3)Gal(b1-4)GlcNAc(b1-3)Gal(b1-4)GlcNAc(b1-2)[Gal(b1-4)GlcNAc(b1-3)Gal(b1-4)GlcNAc(b1-3)Gal(b1-4)GlcNAc(b1-3)Gal(b1-4)GlcNAc(b1-6)]Man(a1-6)[Gal(b1-4)GlcNAc(b1-3)Gal(b1-4)GlcNAc(b1-3)Gal(b1-4)GlcNAc(b1-3)Gal(b1-4)GlcNAc(b1-2)Man(a1-3)]Man(b1-4)GlcNAc(b1-4)[Fuc(a1-6)]GlcNAc
Summary of the method: as §1

[19] = target: Gal(b1-4)GlcNAc(b1-3)Gal(b1-4)GlcNAc(b1-3)Gal(b1-4)GlcNAc(b1-3)Gal(b1-4)GlcNAc(b1-3)Gal(b1-4)GlcNAc(b1-2)Man(a1-3)[Gal(b1-4)GlcNAc(b1-3)Gal(b1-4)GlcNAc(b1-3)Gal(b1-4)GlcNAc(b1-3)Gal(b1-4)GlcNAc(b1-3)Gal(b1-4)GlcNAc(b1-2)Man(a1-6)]Man(b1-4)GlcNAc(b1-4)GlcNAc
Summary of the method: as §1

[20] = target: Gal(b1-4)GlcNAc(b1-3)Gal(b1-4)GlcNAc(b1-3)Gal(b1-4)GlcNAc(b1-3)Gal(b1-4)GlcNAc(b1-3)Gal(b1-4)GlcNAc(b1-2)Man(a1-3)[Gal(b1-4)GlcNAc(b1-3)Gal(b1-4)GlcNAc(b1-3)Gal(b1-4)GlcNAc(b1-3)Gal(b1-4)GlcNAc(b1-3)Gal(b1-4)GlcNAc(b1-2)Man(a1-6)]Man(b1-4)GlcNAc(b1-4)[Fuc(a1-6)]GlcNAc
Summary of the method: as §1

[21] = target: Gal(b1-4)GlcNAc(b1-3)Gal(b1-4)GlcNAc(b1-3)Gal(b1-4)GlcNAc(b1-3)Gal(b1-4)GlcNAc(b1-3)Gal(b1-4)GlcNAc(b1-2)[Gal(b1-4)GlcNAc(b1-3)Gal(b1-4)GlcNAc(b1-3)Gal(b1-4)GlcNAc(b1-3)Gal(b1-4)GlcNAc(b1-3)Gal(b1-4)GlcNAc(b1-6)]Man(a1-6)[Gal(b1-4)GlcNAc(b1-3)Gal(b1-4)GlcNAc(b1-3)Gal(b1-4)GlcNAc(b1-3)Gal(b1-4)GlcNAc(b1-3)Gal(b1-4)GlcNAc(b1-2)Man(a1-3)]Man(b1-4)GlcNAc(b1-4)[Fuc(a1-6)]GlcNAc
Summary of the method: as §1

[22] = target: Gal(b1-4)GlcNAc(b1-3)Gal(b1-4)GlcNAc(b1-3)Gal(b1-4)GlcNAc(b1-3)Gal(b1-4)GlcNAc(b1-3)Gal(b1-4)GlcNAc(b1-3)Gal(b1-4)GlcNAc(b1-2)Man(a1-3)[Gal(b1-4)GlcNAc(b1-3)Gal(b1-4)GlcNAc(b1-3)Gal(b1-4)GlcNAc(b1-3)Gal(b1-4)GlcNAc(b1-3)Gal(b1-4)GlcNAc(b1-3)Gal(b1-4)GlcNAc(b1-2)Man(a1-6)]Man(b1-4)GlcNAc(b1-4)GlcNAc
Summary of the method: as §1

[23] = target: Gal(b1-4)GlcNAc(b1-3)Gal(b1-4)GlcNAc(b1-3)GalNAc
Summary of the method: as §1

[24] = target: Gal(b1-4)GlcNAc(b1-3)Gal(b1-4)GlcNAc(b1-3)[Gal(b1-4)GlcNAc(b1-3)Gal(b1-4)GlcNAc(b1-6)]GalNAc
Summary of the method: as §1

[25] = target: Gal(b1-4)GlcNAc(b1-3)Gal(b1-4)GlcNAc(b1-6)[Gal(b1-3)]GalNAc
Summary of the method: as §1

[26] = target: Gal(b1-4)GlcNAc(b1-3)Gal(b1-4)[Fuc(a1-3)]GlcNAc(b1-3)Gal(b1-4)[Fuc(a1-3)]GlcNAc
Summary of the method: as §1

[27] = target: Gal(b1-4)GlcNAc(b1-3)GalNAc
Summary of the method: as §1

[28] = target: Gal(b1-4)GlcNAc(b1-3)[Fuc(a1-3)GlcNAc(b1-6)]Gal(b1-4)Glc
Summary of the method: as §1

[29] = target: Gal(b1-4)GlcNAc(b1-3)[Gal(b1-4)GlcNAc(b1-6)]Gal(b1-4)GlcNAc
Summary of the method: as §1

[30] = target: Gal(b1-4)GlcNAc(b1-3)[GlcNAc(b1-6)]Gal(b1-4)GlcNAc
Summary of the method: as §1

[31] = target: Gal(b1-4)GlcNAc(b1-6)Gal(b1-4)GlcNAc
Summary of the method: as §1

[32] = target: Gal(b1-4)GlcNAc(b1-6)GalNAc
Summary of the method: as §1

[33] = target: Gal(b1-4)GlcNAc(b1-6)[Gal(b1-3)]GalNAc
Summary of the method: as §1

[34] = target: Gal(b1-4)GlcNAc(b1-6)[Gal(b1-4)GlcNAc(b1-3)]GalNAc
Summary of the method: as §1

[35] = target: Gal(b1-4)GlcNAc6P
Summary of the method: as §1

[36] = target: Gal(b1-6)Gal
Summary of the method: as §1

[37] = target: Gal3S(b1-3)GalNAc
Summary of the method: as §1

[38] = target: Gal3S(b1-3)GlcNAc
Summary of the method: as §1

B1: AT3G44510(29) (Arabidopsis thaliana), F4J341 (protein)
chain: MEEHLQGRIKLHDGRYLAYKERGVPKDDAKFTIVLVHGFGSSKDMNFNVSQELVNEIGIYFVLYDRAGYGESDPNPKRSLKSEAYDVQELADGLEIGSRFYLIGISMGSYTVWSCLKHIPQRLAGVAMVAPVVNFRWPSIPKSLMPKDYRREVAKWSVWIANYFPGLLQWLVTQNMFSTTSMLEKNPVYFNDQDIEVLKHIKGFPMLTKEKLRERGVFGTLRSDFLVAFGDWDFDPADLPDPSLSGPEKGSSSVHIWQGYEDKVMPFQLQRCLCRKLPWIRYHEVPKGGHLIVHYDGICDAILKSLLLGEDLPMYKPKAVITEPA
- glycan array binding signal (z-score) [1]: 0.453
- glycan array binding signal (z-score) [2]: -0.114
- glycan array binding signal (z-score) [3]: -0.121
- glycan array binding signal (z-score) [4]: 1.1
- glycan array binding signal (z-score) [5]: -0.443
- glycan array binding signal (z-score) [6]: 0.133
- glycan array binding signal (z-score) [7]: 0.198
- glycan array binding signal (z-score) [8]: -0.101
- glycan array binding signal (z-score) [9]: 0.664
- glycan array binding signal (z-score) [10]: -0.242
- glycan array binding signal (z-score) [11]: -0.519
- glycan array binding signal (z-score) [12]: -0.803
- glycan array binding signal (z-score) [13]: -0.211
- glycan array binding signal (z-score) [14]: -0.156
- glycan array binding signal (z-score) [15]: 0.142
- glycan array binding signal (z-score) [16]: -0.195
- glycan array binding signal (z-score) [17]: -0.53
- glycan array binding signal (z-score) [18]: 0.247
- glycan array binding signal (z-score) [19]: -0.625
- glycan array binding signal (z-score) [20]: -0.499
- glycan array binding signal (z-score) [21]: -0.053
- glycan array binding signal (z-score) [22]: 0.658
- glycan array binding signal (z-score) [23]: -0.258
- glycan array binding signal (z-score) [24]: 0.078
- glycan array binding signal (z-score) [25]: -0.218
- glycan array binding signal (z-score) [26]: -0.05
- glycan array binding signal (z-score) [27]: -0.123
- glycan array binding signal (z-score) [28]: -0.587
- glycan array binding signal (z-score) [29]: -0.167
- glycan array binding signal (z-score) [30]: -0.385
- glycan array binding signal (z-score) [31]: -0.161
- glycan array binding signal (z-score) [32]: 0.935
- glycan array binding signal (z-score) [33]: -0.552
- glycan array binding signal (z-score) [34]: 0.477
- glycan array binding signal (z-score) [35]: -0.557
- glycan array binding signal (z-score) [36]: -0.503
- glycan array binding signal (z-score) [37]: -0.428
- glycan array binding signal (z-score) [38]: 0.218
